From paper PMC10163288
Some of the results follow.

B1: il2ra_site2_3nfp_sap_23_mot_HHH_b1_04232_000000091_0001_1_18_H_._HHH_b2_02870_0001_0000100002_0000001_0_0001 (protein)
chain: SSSSDEVDRLIIEAYELLLNGNPEEAAKLLEEALELARELGDEEAERHIEEVLHALKMSLSSSSS
B2: il2ra_site1_3nfp_normal_mot_cb30422a6ab91adc1f3d04a5d8d2ea43_0001_000000171_0001_1_15_H_._c76af47b9a218f83f7bafcda6da8da14_0001_1_af2_0001_0001400027_0000001_0_ … (protein)
chain: DEAEELVERALELANGDEILALYLLAKLAAELGIPPEELEKLVQEVLEKTGDPRVRRILRALRRE
B3: il2ra_site1_1z92_normal_mot_HHH_b2_04293_000000220_0001_23_38_H_._HHH_b2_03060_0001_0000100003_0000001_0 (protein)
chain: SSSDEESERAVELAVRVAVEMANLSEEQKELLEELARELLEEGVDVLEIIKLLDELALRLESSSS
B4: il2ra_site1_3nfp_sap_16_mot_1d0af4279e6cd48282cc3e51f763a6be_0001_000000077_0001_33_47_H_._HEEHE_3114_0001_0000300017_0000001_0_0001_af2pred_0001_af2pred_1_swap … (protein)
chain: DEEKELAELIKEAVEKNDPELLERVARELLKELGDPRAASELFKELLKKAGLSPKEIYEALRSVA
B5: il2ra_site2_3nfp_normal_mot_HHH_b1_05627_af2_000000038_0001_43_56_H_._HHH_b1_00117_0001_0000500025_0000001_0 (protein)
chain: SSSSKSHEYLRVALLIAKLALEQGDPESARESAEAALQLAEDAKDPELFEEIERLLEEIEGSSSS
B6: il2ra_site1_2b5i_normal_mot_HHH_b2_04910_000000118_0001_1_19_H_._HHH_b2_04613_af2_0001_0000200035_0000001_0_af2pred_0001_af2pred (protein)
chain: SSSSDRELAERVWELLEEANEAFKNGNPEEAEKLLEEARELAEENNNRSLLKVVEAALRILSSSS
B7: il2ra_site1_1z92_normal_mot_HHH_b1_00368_000000203_0001_23_39_H_._HHH_b2_01204_0001_0000400077_0000001_0_af2pred_0001_af2pred_1 (protein)
chain: SSSSDDIAKNLVRVLVRAAGLSEEAEEELEELAKRLLEEGYSPEEISRILHKLALELDERLSSSS
B8: il2ra_site1_1z92_sap_19_mot_HHH_b2_07164_000000082_0001_1_15_H_._ddd5b65e98111f608b3a4ab1c0de386d_0001_af2_0001_0000800012_0000001_0_0001_af2pred_0001_af2pred_s … (protein)
chain: SSSSDEARRLAKLVAELAREYGASDEVFLELSRLADELFARGLSEEEIEELLKRLIEELLSSSSS
B9: il2ra_site1_3nfp_sap_16_mot_HHH_b1_00739_000000172_0001_19_38_H_._HHH_b1_07028_af2_0001_0000600035_0000001_0_0001 (protein)
chain: SAMEISRILRKLLRRVPPEVRKLLQEVLRLLVRGNPEEAEKVLEEILELVGDPLVEELLELVRKW
B10: il2ra_site2_2erj_normal_mot_HHH_b1_06608_000000059_0001_22_39_H_._HHH_b2_01923_0001_0000300007_0000001_0_1_af2pred_0001_af2pred (protein)
chain: SSSSSSDLEELLEEIKEAIEEGDEELAARLLSEAIQLADEEGDEETLKELLRLVELVFSSSSSSS
B11: il2ra_site2_3nfp_sap_13_mot_HHH_b1_08097_000000036_0001_22_39_H_._3020bb65e3c0c4c1750efda2a61ed53f_0001_1_af2_0001_0000400015_0000001_0_0001 (protein)
chain: SSSSDEERERAEELFELIEELREEGDEERLLEALWELMRLAFEVGDPKLAEISNRAYEIVQSSSS
B12: il2ra_site1_2b5i_sap_17_mot_2cbe48e66a1f39b3fed734b245ab0a04_0001_000000015_0001_17_31_H_._HHH_b1_01921_0001_0000600034_0000001_0_0001_af2pred_dldesign_0_af2pre … (protein)
chain: SSSSSDVKEVLELFEEANKLFQAGKPEEAKEVLEKALEKAKALGAEAHIRIIESALEQLESSSSS
B13: il2ra_site2_2erj_normal_mot_HHH_b1_00821_000000191_0001_1_20_H_._HHH_b1_06496_0002_0000200014_0000001_0 (protein)
chain: SSSSSDVQERVLELLFEAIRIIDPEEREKVLEEARQLAEERNDEEAKLAVETFERYEERLSSSSS
B14: il2ra_site1_2b5i_sap_18_mot_HHH_b2_02828_af2_000000092_0001_43_56_H_._HHH_b1_08026_0001_0000100002_0000001_0_0001_af2pred_dldesign_0_af2pred (protein)
chain: SSSSSEDRLEARRLFFEADRLKQAGKEEEAKEALEKAKELAEKAGNKLLKKQIELALASLSSSSS
B15: il2ra_site2_3nfp_sap_14_mot_HHH_b1_00660_af2_000000090_0001_40_57_H_._HHH_b2_06962_0001_0000100006_0000001_0_0001_af2pred_0001_af2pred_swapped (protein)
chain: SSSSDREEVEELLRELEEAVRRNDEELFRELAHRISKLIREIGDAELFFILVELRLEFLRSSSSS
B16: il2ra_site2_3nfp_sap_13_mot_HHH_b1_00487_000000023_0001_40_53_H_._HHH_b1_01657_af2_0001_0000400022_0000001_1_0001 (protein)
chain: SDAEAAELALRLIRAHALVHNDDEVREEVEKLEEELKEAKEKNDEELVEEIAERASELAEKVANS
B17: il2ra_site1_3nfp_sap_13_mot_HHH_b2_06502_000000119_0001_42_55_H_._HHH_b2_07191_af2_0001_0000400036_0000001_0_0001 (protein)
chain: GPEVERKLVEQALRLNSPRLLKKILRDAERFHGDPEEAERWLSELIAEVLKVPPEEAQEIVEEVK
B18: il2ra_site1_1z92_sap_20_mot_HHH_b1_00561_af2_000000294_0001_1_19_H_._HHH_eva_0050_af2_0002_0000400070_0000001_0_0001 (protein)
chain: SSSSSNLERALRQAVEIAVELAGLSEEQREELEEVARELVEKGVDPLEALKILDRVALELSSSSS
B19: il2ra_site1_1z92_normal_mot_HHH_b1_00108_af2_000000035_0001_38_51_H_._HHH_b2_06226_af2_0001_0000300019_0000001_0 (protein)
chain: SSSSSSEEERTERAQELFRQAARITDREEVERLLEEALELAKEANNENIKRDIEQYLEMLSSSSS
B20: il2ra_site2_2erj_normal_mot_HHH_b2_03913_af2_000000182_0001_1_19_H_._HHH_b2_00910_af2_0001_0000700018_0000001_0 (protein)
chain: SSSSQEAAELLARAWREAAKLFRNGNPEEAEEVLEEYAKEVEKLGDEEALEAIERFLKFLTSSSS
B21: il2ra_site1_1z92_sap_17_mot_00a0fa73c9dbd8f1f8571bd9de0225d9_0001_af2_000000011_0001_1_12_H_._80559a6cc29e48f8bbd5a2a34f257aa3_0001_0001_0000100009_0000001_1_00 … (protein)
chain: NLRAEDLREAVEKNDEEELRKFIRLLLEDSGDPRLVKQLLRELVKRLGLPPEVLERLEELLEELT
B22: il2ra_site2_3nfp_normal_mot_HHH_b2_04230_000000235_0001_39_52_H_._72a79b14e1a0e827e78e129a6f5f8f0c_0001_1_0001_0000200015_0000001_0 (protein)
chain: DREFSQRIFELAREGDPVAFLLYALLAEVAFKGDPELRRLLEEALEALERGNPEEAEEIVHKALQ
B23: il2ra_site1_3nfp_normal_mot_HHH_b2_08102_af2_000000255_0001_38_50_H_._HHH_b2_07461_af2_0001_0000100011_0000001_0_af2pred_0001_af2pred_swapped (protein)
chain: SSSSNEEFRKATELSKELLEALKRGDEEEARRLAEELLELARRLGSRIAEEFAEAVRERLSSSSS
B24: il2ra_site1_1z92_sap_22_mot_HHH_b1_05516_af2_000000202_0001_21_38_H_._HHH_b2_07203_0001_0000400022_0000001_0_0001_af2pred_0001_af2pred_swapped (protein)
chain: DDEAARYDLERSLKLGIPPEAVVKAVLRALERFLGDPEEALEVIERAIKLLNDPELEEVVEKLKP

Target: il2ra, P01589
Experiment: yeast display titration

Apparent Kd, inactive:
B1 no binding seen
B2 no binding seen
B3 no binding seen
B4 no binding seen
B5 no binding seen
B6 > 670 nM
B7 no binding seen
B8 no binding seen
B9 no binding seen
B10 no binding seen
B11 no binding seen
B12 no binding seen
B13 no binding seen
B14 no binding seen
B15 no binding seen
B16 no binding seen
B17 no binding seen
B18 no binding seen
B19 no binding seen
B20 no binding seen
B21 no binding seen
B22 no binding seen
B23 no binding seen
B24 no binding seen

2 successive records already listed:
Apparent Kd, inactive:
B18 no binding seen
B19 no binding seen
